According to PMC10294661:

Target: T1, 6xHis-WhiJ9 (Streptomyces venezuelae) (UniProt F2RAJ0)
T1 sequence (looked up, limits assumed): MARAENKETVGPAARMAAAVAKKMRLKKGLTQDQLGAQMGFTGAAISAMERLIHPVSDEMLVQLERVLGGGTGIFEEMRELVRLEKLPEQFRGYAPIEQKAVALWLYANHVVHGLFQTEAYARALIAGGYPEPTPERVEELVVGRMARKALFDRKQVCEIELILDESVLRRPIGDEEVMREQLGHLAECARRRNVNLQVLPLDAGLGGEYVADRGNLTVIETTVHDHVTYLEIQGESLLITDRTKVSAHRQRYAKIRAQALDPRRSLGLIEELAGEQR
Assay: SPR
Conditions: SPR (ReDCaT): 10 mM HEPES pH 7.4, 250 mM NaCl, 3 mM EDTA, 0.05% Tween 20, DNA 1 uM, temperature not stated, recombinant protein, protein details: N-terminal 6xHis (pET15b), label: captured via biotinylated ReDCaT linker

Sequence | binding result | also measured
ACCGATCTCAACCGGTCTCAAC / GTTGAGACCGGTTGAGATCGGTCCTACCCTACGTCCTCCTGC [LH10] | binds more weakly | –
ATCTCAACCGGTCTCAAC / GTTGAGACCGGTTGAGATCCTACCCTACGTCCTCCTGC [LH12] | binds more weakly | –
CAACCGATCTCAACCGGTCTCAAC / GTTGAGACCGGTTGAGATCGGTTGCCTACCCTACGTCCTCCTGC [LH9] | binds more weakly | –
CCGACGCGCCCGCCACAGTCGTGGAAAACGCTAGCGCCGG / CCGGCGCTAGCGTTTTCCACGACTGTGGCGGGCGCGTCGGCCTACCCTACGTCCTCCTGC [O5] | no binding | –
CCGCCGAATTCGACTGCACACGAGGGGCGTTGGTGCAGGT / ACCTGCACCAACGCCCCTCGTGTGCAGTCGAATTCGGCGGCCTACCCTACGTCCTCCTGC [O3] | no binding | –
CGATCTCAACCGGTCTCAAC / GTTGAGACCGGTTGAGATCGCCTACCCTACGTCCTCCTGC [LH11] | binds more weakly | –
CGGACTCAACCGATCTCAAC / CCTACCCTACGTCCTCCTGCGTTGAGATCGGTTGAGTCCG [RH11] | – | binding result (severe drop): binds more weakly
CGGACTCAACCGATCTCAACCG / CCTACCCTACGTCCTCCTGCCGGTTGAGATCGGTTGAGTCCG [RH10] | – | binding result (severe drop): binds more weakly
CGGACTCAACCGATCTCAACCGGT / CCTACCCTACGTCCTCCTGCACCGGTTGAGATCGGTTGAGTCCG [RH9] | – | binding result (severe drop): binds more weakly
CGGACTCAACCGATCTCAACCGGTCT / CCTACCCTACGTCCTCCTGCAGACCGGTTGAGATCGGTTGAGTCCG [RH8] | – | binding result (severe drop): binds more weakly
CGGACTCAACCGATCTCAACCGGTCTCA / CCTACCCTACGTCCTCCTGCTGAGACCGGTTGAGATCGGTTGAGTCCG [RH7] | – | binding result (severe drop): binds more weakly
CGGACTCAACCGATCTCAACCGGTCTCAAC / CCTACCCTACGTCCTCCTGCGTTGAGACCGGTTGAGATCGGTTGAGTCCG [RH6] | binds more weakly | –
CGGACTCAACCGATCTCAACCGGTCTCAACTG / CCTACCCTACGTCCTCCTGCCAGTTGAGACCGGTTGAGATCGGTTGAGTCCG [RH5] | binds more weakly | –
CGGACTCAACCGATCTCAACCGGTCTCAACTGCT / CCTACCCTACGTCCTCCTGCAGCAGTTGAGACCGGTTGAGATCGGTTGAGTCCG [RH4] | binds more weakly | –
CGGACTCAACCGATCTCAACCGGTCTCAACTGCTCC / CCTACCCTACGTCCTCCTGCGGAGCAGTTGAGACCGGTTGAGATCGGTTGAGTCCG [RH3] | binds more weakly | –
CGGACTCAACCGATCTCAACCGGTCTCAACTGCTCCCCGC / CCTACCCTACGTCCTCCTGCGCGGGGAGCAGTTGAGACCGGTTGAGATCGGTTGAGTCCG [RH1] | binds | –
CTCAACCGATCTCAACCGGTCTCAAC / GTTGAGACCGGTTGAGATCGGTTGAGCCTACCCTACGTCCTCCTGC [LH8] | binds more weakly | –
CTCAACCGGTCTCAAC / GTTGAGACCGGTTGAGCCTACCCTACGTCCTCCTGC [LH13] | no binding | –
GACTCAACCGATCTCAACCGGTCTCAAC / GTTGAGACCGGTTGAGATCGGTTGAGTCCCTACCCTACGTCCTCCTGC [LH7] | binds more weakly | –
GATCTCAACCGGTCTCAACTGCTCCCCGCCGAATTCGACT / AGTCGAATTCGGCGGGGAGCAGTTGAGACCGGTTGAGATCCCTACCCTACGTCCTCCTGC [O2] | – | binding result (higher affinity than O1): binds
GGCGTTGGTGCAGGTCGAGGGGTTACCGACGCGCCCGCCA / TGGCGGGCGCGTCGGTAACCCCTCGACCTGCACCAACGCCCCTACCCTACGTCCTCCTGC [O4] | no binding | –
GTCGTGGAAAACGCTAGCGCCGGCGCGGGAACATGTCCTC / GAGGACATGTTCCCGCGCCGGCGCTAGCGTTTTCCACGACCCTACCCTACGTCCTCCTGC [O6] | no binding | –
GTTCCCCATTCGGACTCAACCGATCTCAACCGGTCTCAAC / GTTGAGACCGGTTGAGATCGGTTGAGTCCGAATGGGGAACCCTACCCTACGTCCTCCTGC [LH1] | binds | –
TACATGCAGCGGATGAGGGAGCCGGTCTCAACAT / ATGTTGAGACCGGCTCCCTCATCCGCTGCATGTACCTACCCTACGTCCTCCTGC [DR3only] | binds | –
TACATGCAGCGGCGATCTCAACATGAGGGAGCAT / ATGCTCCCTCATGTTGAGATCGCCGCTGCATGTACCTACCCTACGTCCTCCTGC [DR2only] | no binding | –
TACATGCAGCGGCGATCTCAACCGGTCTCAACAT / ATGTTGAGACCGGTTGAGATCGCCGCTGCATGTACCTACCCTACGTCCTCCTGC [DR23] | – | binding result (almost as well as DR123): binds
TACGGACTCAACCATGCAGCGGATGAGGGAGCAT / ATGCTCCCTCATCCGCTGCATGGTTGAGTCCGTACCTACCCTACGTCCTCCTGC [DR1only] | no binding | –
TACGGACTCAACCATGCAGCGGCGGTCTCAACAT / ATGTTGAGACCGCCGCTGCATGGTTGAGTCCGTACCTACCCTACGTCCTCCTGC [DR13] | – | binding result (strong): binds
TACGGACTCAACCGATCTCAACCGGTCTCAACAT / ATGTTGAGACCGGTTGAGATCGGTTGAGTCCGTACCTACCCTACGTCCTCCTGC [DR123] | – | binding result (highest of the DR set): binds
TCACGTTCCCCATTCGGACTCAACCGATCTCAACCGGTCT / AGACCGGTTGAGATCGGTTGAGTCCGAATGGGGAACGTGACCTACCCTACGTCCTCCTGC [O1] | – | binding result (lower affinity than O2): binds

For at least one entry, the source does not settle the construct or the ends of the probe. A negative result means that nothing was seen under these conditions. Tags and fusion partners may be left off the protein sequences shown. A weaker result is weaker than the reference pair of the same experiment. At least one verdict was read from the data and is not stated in words by the source.
